# In PubChem BioAssay AID2314 (National Center for Advancing Translational Sciences (NCATS), 2010):
# This is a selection; strong and weak results do not stand in their true shares. The source made the active and inactive calls. No stated cut-off is given here; in the data, active means max response mostly above about 13% (no sharp cut-off); inactive means mostly below about 14%.
# Assay: Cycloheximide Counterscreen for Small Molecule Inhibitors of Shiga Toxin; further: read at 38.3 µM for the half of the compounds with a filed dose; 0% is about no effect
# Conditions: cell reporter, cycloheximide protein synthesis inhibition counterscreen; active compounds read high
row,SMILES,max response
1,COc1ccc(/C(N)=N/OC(=O)CSc2ccccc2)cc1,active: 39.1%
